Test results as given in publication PMC4652056.
For at least one entry, the source does not settle the construct or the ends of the probe. Negatives hold for the conditions tested. Protein sequences can lack the tags named with them.

Molecular target: T1, BnWRI1 (Brassica napus) (UniProt Q2EPY6)
T1 sequence (looked up, limits assumed): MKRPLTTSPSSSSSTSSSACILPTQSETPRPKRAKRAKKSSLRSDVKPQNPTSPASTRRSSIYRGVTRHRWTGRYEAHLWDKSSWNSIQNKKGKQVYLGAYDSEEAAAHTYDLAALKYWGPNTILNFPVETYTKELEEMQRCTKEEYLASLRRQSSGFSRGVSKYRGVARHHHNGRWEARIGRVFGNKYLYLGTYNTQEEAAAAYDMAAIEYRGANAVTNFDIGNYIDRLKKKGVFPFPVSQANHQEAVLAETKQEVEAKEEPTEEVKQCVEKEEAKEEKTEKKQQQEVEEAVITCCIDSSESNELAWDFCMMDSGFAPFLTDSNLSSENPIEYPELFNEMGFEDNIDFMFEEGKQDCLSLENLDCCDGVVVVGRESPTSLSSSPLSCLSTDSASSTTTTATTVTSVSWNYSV
Test: EMSA
Details: 0.4 ug protein; 20 mM Tris-HCl pH 8.0, 250 mM NaCl, 2 mM MgCl2, 1% glycerol, 1 mg/ml BSA, 1 mM DTT, 1 h at 4 C; 6% native PAGE; recombinant protein; protein details: His (pET28a); label: none (UV-visualized); probe letters rebuilt from the primers and the genome

GAATTCTGTTGAGTTACGAATTGGAGAATGGCTCAAAGCATCCGTACCTATTTTAAGTAGACCAAATAGTAGAATAACATAAACTACAAGGCTAGAACTAAAACACTTGTAAAATTAAGGGACTTAGAGAAAAATTACAGTCCAAAAATTTTCCCAAATAATTCGCTGTTTTTTTTATAATATAGTCTTGCTCCTGAAATCTGACGAACATAAGCTCTTTTCGCAAAACACACATCACACACCATTTTCACAACATCGTACTTATCGCCTTCCTCTCTCTCTCAATACCTCTCTCAATGAGCTC (double strand) [KASI promoter mutant AW-box [TnCnA](n)7[CG]]
binding result: no binding

GAATTCTGTTGAGTTACGAATTGGAGAATGGCTCAAAGCATCCGTACCTATTTTAAGTAGACCAAATAGTAGAATAACATAAACTACAAGGCTAGAACTAAAACACTTGTAAAATTAAGGGACTTAGAGAAAAATTACAGTCCAAAAATTTCCTCGAATAATTCGCTGTTTTTTTTATAATATAGTCTTGCTCCTGAAATCTGACGAACATAAGCTCTTTTCGCAAAACACACATCACACACCATTTTCACAACATCGTACTTATCGCCTTCCTCTCTCTCTCAATACCTCTCTCAATGAGCTC (double strand) [KASI promoter (AW-box)]
binding result: binds
